Experimental data published in the supplement of paper PMC12823440, “Inhibitors supercharge kinase turnover through native proteolytic circuits” (Nature, 2025).
Structures can show the parent of a compound that is named as a salt. The list shows a part of the results. The calls rarely recur for the same compound in another form.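 Kinases, fused to nanoluciferase, were expressed in K562 cells; luminescence was measured every 4 h from 2 to 18 h as percent of control (DMSO = 100%, positive control = 0%). A time point is decreased if signal falls significantly (2 sigma). Hits were called by the authors by a rule that is not shown; the count of time points alone does not decide it.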

The chains behind the UniProt entries cited, without tags or fusion partners. Where a name states a change or a piece, a line headed by the entry shows the natural chain unless it says otherwise.
UniProt Q05397, whole entry, looked up: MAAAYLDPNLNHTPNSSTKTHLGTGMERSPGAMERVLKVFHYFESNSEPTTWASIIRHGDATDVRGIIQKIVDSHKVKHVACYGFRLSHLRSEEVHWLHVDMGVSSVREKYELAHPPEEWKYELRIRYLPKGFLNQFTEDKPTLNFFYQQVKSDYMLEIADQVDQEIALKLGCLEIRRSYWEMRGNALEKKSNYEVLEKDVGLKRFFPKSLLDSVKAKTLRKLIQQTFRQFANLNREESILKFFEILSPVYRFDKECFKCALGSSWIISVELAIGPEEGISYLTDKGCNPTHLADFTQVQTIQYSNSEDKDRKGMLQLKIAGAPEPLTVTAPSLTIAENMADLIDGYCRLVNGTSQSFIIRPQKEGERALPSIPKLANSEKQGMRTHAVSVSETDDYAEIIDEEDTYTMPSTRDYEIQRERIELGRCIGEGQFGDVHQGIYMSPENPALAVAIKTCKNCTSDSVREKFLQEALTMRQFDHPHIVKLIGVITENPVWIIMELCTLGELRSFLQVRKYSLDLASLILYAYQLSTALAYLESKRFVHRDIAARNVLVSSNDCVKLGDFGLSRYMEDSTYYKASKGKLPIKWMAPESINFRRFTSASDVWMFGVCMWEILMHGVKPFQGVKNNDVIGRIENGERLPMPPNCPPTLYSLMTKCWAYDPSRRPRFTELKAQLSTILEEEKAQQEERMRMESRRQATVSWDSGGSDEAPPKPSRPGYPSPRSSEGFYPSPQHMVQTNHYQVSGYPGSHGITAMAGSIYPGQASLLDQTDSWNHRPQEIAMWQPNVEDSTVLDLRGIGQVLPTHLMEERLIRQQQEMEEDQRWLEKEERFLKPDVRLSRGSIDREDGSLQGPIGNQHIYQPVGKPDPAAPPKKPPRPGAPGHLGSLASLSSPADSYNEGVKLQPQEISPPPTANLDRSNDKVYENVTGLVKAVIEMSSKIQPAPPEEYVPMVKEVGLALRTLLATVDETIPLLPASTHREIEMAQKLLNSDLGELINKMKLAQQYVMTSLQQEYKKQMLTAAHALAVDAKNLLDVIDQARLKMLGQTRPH
UniProt Q14289, whole entry, looked up: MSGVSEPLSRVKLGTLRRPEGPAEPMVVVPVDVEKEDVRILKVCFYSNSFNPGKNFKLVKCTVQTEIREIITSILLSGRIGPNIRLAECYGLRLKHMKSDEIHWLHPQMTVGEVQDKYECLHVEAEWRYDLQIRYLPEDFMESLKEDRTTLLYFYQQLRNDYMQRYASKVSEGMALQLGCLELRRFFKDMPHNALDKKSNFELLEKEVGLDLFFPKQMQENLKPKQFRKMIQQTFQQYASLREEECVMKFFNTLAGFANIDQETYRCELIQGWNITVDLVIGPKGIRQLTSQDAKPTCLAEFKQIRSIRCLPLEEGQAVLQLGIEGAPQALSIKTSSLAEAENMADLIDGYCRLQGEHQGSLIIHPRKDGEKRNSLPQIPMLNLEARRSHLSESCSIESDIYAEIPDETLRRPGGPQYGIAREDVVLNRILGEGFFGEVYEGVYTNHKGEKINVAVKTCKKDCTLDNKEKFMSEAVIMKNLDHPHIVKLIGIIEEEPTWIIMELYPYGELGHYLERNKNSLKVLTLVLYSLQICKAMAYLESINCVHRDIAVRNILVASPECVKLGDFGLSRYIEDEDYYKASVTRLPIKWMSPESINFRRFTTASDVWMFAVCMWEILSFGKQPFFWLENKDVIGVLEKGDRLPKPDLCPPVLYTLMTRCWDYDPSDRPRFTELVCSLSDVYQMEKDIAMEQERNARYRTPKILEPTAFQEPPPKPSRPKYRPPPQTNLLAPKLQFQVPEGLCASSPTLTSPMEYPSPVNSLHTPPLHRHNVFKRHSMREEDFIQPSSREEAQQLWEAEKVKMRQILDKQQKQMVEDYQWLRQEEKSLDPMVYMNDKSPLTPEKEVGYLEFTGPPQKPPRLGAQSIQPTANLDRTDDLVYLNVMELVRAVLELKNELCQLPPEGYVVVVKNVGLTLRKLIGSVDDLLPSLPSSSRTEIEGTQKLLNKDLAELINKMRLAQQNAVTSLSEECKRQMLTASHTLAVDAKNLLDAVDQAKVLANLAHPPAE
UniProt P07949, whole entry, looked up: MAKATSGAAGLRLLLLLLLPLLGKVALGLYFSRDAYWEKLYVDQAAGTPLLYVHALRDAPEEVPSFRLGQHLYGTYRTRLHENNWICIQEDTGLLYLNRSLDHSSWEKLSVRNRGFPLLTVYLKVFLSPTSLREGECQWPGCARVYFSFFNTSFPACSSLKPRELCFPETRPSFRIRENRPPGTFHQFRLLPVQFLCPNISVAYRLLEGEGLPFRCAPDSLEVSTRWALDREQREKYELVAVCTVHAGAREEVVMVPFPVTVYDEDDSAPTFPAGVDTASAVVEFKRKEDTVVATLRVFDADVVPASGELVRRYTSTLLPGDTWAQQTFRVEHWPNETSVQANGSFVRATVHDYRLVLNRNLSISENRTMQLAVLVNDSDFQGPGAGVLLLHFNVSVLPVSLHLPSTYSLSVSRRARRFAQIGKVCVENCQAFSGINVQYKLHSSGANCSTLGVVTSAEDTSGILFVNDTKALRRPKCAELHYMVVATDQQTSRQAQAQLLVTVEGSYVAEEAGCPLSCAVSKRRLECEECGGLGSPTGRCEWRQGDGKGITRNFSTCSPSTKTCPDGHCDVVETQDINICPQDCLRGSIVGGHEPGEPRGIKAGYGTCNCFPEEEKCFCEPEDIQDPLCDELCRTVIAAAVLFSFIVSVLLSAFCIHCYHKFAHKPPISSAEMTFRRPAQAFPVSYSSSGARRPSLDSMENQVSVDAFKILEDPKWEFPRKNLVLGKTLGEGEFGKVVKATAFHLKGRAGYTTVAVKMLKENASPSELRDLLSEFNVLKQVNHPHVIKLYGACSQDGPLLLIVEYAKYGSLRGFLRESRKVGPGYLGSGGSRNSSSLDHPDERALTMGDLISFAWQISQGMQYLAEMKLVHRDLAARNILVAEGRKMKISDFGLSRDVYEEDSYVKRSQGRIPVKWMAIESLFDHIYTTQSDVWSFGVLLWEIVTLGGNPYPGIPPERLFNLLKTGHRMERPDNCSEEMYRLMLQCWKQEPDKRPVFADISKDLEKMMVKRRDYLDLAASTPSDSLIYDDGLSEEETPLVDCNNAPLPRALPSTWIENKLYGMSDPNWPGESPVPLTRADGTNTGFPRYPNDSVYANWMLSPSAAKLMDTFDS
UniProt Q9BRS2: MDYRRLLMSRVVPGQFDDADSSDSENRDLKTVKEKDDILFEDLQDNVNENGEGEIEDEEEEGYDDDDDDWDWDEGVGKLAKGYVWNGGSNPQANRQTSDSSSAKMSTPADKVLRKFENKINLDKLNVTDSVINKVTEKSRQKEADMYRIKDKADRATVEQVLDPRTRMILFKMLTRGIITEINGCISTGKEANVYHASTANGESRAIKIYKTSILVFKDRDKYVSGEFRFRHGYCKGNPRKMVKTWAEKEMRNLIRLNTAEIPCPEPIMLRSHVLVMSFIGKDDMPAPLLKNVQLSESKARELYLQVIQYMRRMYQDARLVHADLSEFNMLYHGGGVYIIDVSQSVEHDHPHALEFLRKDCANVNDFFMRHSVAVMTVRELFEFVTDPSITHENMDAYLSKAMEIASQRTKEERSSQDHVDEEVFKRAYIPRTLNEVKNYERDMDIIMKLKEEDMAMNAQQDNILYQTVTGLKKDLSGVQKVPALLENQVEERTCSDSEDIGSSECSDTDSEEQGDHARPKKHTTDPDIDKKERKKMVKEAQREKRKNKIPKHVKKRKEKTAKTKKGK
UniProt Q13546: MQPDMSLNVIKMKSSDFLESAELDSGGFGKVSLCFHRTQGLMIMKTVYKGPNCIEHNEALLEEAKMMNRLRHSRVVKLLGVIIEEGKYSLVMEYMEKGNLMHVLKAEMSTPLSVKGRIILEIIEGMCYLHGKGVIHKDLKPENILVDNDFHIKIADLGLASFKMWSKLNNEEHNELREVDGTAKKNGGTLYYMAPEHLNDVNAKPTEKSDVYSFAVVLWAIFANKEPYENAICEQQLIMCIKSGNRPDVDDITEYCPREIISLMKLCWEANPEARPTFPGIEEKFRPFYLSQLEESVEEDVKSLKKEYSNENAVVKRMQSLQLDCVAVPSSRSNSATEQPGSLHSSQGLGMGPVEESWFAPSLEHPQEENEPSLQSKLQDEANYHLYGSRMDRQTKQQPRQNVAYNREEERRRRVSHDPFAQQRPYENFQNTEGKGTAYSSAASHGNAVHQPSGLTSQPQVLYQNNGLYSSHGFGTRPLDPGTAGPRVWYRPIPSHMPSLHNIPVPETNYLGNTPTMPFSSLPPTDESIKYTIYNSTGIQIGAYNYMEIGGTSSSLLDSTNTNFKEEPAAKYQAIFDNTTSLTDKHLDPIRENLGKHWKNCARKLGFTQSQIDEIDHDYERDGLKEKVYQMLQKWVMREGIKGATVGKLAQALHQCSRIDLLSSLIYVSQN
UniProt Q01974, whole entry: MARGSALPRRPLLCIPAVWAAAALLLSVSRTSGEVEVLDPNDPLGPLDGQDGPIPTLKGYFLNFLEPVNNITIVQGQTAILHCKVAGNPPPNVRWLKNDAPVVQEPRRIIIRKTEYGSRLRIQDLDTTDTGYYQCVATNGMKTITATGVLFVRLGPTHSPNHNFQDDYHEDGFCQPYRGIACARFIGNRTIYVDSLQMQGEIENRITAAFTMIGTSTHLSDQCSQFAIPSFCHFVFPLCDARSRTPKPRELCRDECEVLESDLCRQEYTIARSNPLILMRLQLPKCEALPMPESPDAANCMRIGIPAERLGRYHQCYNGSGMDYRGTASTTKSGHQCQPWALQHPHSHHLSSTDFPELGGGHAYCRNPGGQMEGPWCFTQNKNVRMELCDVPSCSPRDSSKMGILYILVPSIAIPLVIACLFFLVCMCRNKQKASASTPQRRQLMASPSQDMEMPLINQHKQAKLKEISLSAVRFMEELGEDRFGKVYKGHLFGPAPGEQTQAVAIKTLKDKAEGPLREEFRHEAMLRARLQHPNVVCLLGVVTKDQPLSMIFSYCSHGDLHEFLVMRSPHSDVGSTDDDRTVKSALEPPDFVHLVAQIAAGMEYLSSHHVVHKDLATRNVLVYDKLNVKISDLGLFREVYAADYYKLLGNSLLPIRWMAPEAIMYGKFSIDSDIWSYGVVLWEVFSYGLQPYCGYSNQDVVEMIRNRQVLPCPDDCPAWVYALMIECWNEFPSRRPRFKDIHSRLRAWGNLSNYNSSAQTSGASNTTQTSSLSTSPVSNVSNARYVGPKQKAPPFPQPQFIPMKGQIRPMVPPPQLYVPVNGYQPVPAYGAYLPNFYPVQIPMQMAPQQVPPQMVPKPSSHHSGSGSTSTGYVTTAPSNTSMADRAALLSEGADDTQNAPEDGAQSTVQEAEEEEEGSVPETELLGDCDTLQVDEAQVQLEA
UniProt Q15208: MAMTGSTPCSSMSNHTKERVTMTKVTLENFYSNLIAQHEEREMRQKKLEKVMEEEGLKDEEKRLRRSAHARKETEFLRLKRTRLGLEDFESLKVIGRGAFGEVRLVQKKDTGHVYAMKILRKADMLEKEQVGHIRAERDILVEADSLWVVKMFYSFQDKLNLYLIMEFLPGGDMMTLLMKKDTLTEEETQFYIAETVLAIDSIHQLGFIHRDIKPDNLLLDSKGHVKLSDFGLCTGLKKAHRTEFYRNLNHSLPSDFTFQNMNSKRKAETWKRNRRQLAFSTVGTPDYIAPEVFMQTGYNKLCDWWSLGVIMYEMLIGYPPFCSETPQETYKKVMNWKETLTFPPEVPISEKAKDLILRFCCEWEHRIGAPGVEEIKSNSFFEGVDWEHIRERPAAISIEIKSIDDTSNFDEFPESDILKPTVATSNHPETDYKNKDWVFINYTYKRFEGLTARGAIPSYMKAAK
UniProt Q6PHR2: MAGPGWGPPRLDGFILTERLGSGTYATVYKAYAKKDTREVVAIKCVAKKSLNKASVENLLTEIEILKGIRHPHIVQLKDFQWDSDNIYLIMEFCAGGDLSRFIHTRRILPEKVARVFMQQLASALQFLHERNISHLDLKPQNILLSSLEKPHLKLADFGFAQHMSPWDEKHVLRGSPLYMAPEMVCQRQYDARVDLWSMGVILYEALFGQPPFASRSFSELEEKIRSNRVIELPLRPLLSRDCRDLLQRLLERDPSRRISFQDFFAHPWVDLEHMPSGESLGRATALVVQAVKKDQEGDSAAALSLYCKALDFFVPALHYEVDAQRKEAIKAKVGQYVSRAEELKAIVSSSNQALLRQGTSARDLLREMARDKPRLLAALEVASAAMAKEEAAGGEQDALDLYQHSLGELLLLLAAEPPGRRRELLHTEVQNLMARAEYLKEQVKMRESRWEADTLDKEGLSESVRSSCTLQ

Experiments:
Assay in all cases: number of time points (of 5) at which kinase-Nluc abundance scored as decreased, DMSO-normalised (count); higher = more persistent destabilization
Conditions in all cases: K562; 2-18 h
PRKCA = PRKCA (UniProt P17252)
PTK2 = PTK2 (UniProt Q05397)
PTK2B = PTK2B (UniProt Q14289)
RAF1 = RAF1 (UniProt P04049)
[1] = biological target: RAF1_S257L (clone: RAF1_mut) (UniProt P04049)
RET = RET (UniProt P07949)
[2] = biological target: RET_M918T (clone: RET_mut) (UniProt P07949)
RIOK1 = RIOK1 (UniProt Q9BRS2)
RIPK1 = RIPK1 (UniProt Q13546)
RIPK2 = RIPK2 (UniProt O43353)
ROR2 = ROR2 (UniProt Q01974)
RPS6KA1 = RPS6KA1 (UniProt Q15418)
SPHK1 = SPHK1 (UniProt Q9NYA1)
SRC = SRC (UniProt P12931)
STK24 = STK24 (UniProt Q9Y6E0)
STK38 = STK38 (UniProt Q15208)
SYK = SYK (UniProt P43405)
TEC = TEC (UniProt P42680)
TYK2 = TYK2 (UniProt P29597)
ULK3 = ULK3 (UniProt Q6PHR2)

Measured: number of time points

C=CC(=O)N1CCC[C@H](n2c(=O)n(-c3ccc(Oc4ccccc4)cc3)c3c(N)ncnc32)C1 [ONO-4059 (analog)] (10 µM)
0: all assays above

Cc1cc(Nc2ncnc3ccc(-c4ccc(CNCCS(C)(=O)=O)o4)cc23)ccc1Oc1ccn2ncnc2c1 [ARRY-380 (analog )] (2.5 µM)
0: all assays above

CCc1cncnc1N1CCN(Cc2nc3ccc(C(F)(F)F)cc3[nH]2)CC1 (10 µM)
0: all assays above

CC1(C)Cc2c(sc(NC(=S)NC(=O)c3ccccc3)c2C(=O)O)CO1 (10 µM)
0: all assays above

CN1CC[C@@H](c2c(O)cc(O)c3c(=O)cc(-c4ccc(C(F)(F)F)cc4Cl)oc23)[C@@H]1CO [Voruciclib (hydrochloride)] (10 µM)
0: all assays above

O=Nc1c2[nH]c3ccccc3nc-2c2ccccc12 [IQ-1S (free acid)] (2.5 µM)
0: all assays above

O=C(CNc1cccc(Cl)c1)NC1CCCN(c2ncnc3[nH]ccc23)C1 (stereo not given) (10 µM)
0: all assays above

CNc1nc(Nc2ccc(C(=O)N3CCOCC3)cc2OC)ncc1Cl (2.5 µM)
0: all assays above

CCCCCCCC/C=C\CCCCCCCCCCCC(=O)O [Erucic acid] (10 µM)
0: all assays above

O=C(Nc1cccc(Nc2ncc(Br)c(NCCc3cnc[nH]3)n2)c1)N1CCCC1 (10 µM)
1: RAF1
2: TYK2
3: ULK3
0: all other assays above

C=CC(=O)N1C[C@H](COc2nc(Nc3cnn(C)c3)nc3[nH]cc(Cl)c23)[C@@H](OC)C1 (2.5 µM)
0: all assays above

Cn1cc(C2=C(c3cccc(N)c3)C(=O)NC2=O)c2ccccc21 (10 µM)
0: all assays above

Looked up one by one from above, 2 records:
CNc1nc(Nc2ccc(C(=O)N3CCOCC3)cc2OC)ncc1Cl (2.5 µM)
0: all assays above

Cn1cc(C2=C(c3cccc(N)c3)C(=O)NC2=O)c2ccccc21 (10 µM)
0: all assays above

(more compounds)

Nc1c(C(=O)NCc2ccc(C(=O)NCCCC3CCCCC3)cc2)cnn1-c1ccccc1 (2.5 µM)
0: all assays above

CN(C)CCC=C1c2ccccc2CCc2ccccc21 [Amitriptyline (hydrochloride)] (2.5 µM)
0: all assays above

Cc1cccc(-c2[nH]c(C(C)(C)C)nc2-c2ccc3nccnc3c2)n1 (10 µM)
0: all assays above

Cc1nn(C)c2c1C(c1ccc(C(F)(F)F)cc1)C(C#N)=C(N)O2 (stereo not given) (10 µM)
0: all assays above
